# Laboratory results: PubChem BioAssay AID1347423 (Functional Genomics Laboratory (NCATS/FGL), 2020)
# Hit rate of the full screen: of about 52,000 sequences, about 210 (0.4%) were called active.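 The calls were made as follows: active = gene whose silencing raises cell survival under the drug, median off-target-corrected z-score across its silencing RNAs 2 or more; inactive = the rest.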 The list shows a part of the results.
# Experiment: Resistance to Poly (ADP-Ribose) Polymerase inhibitor: Gene Identification via Genome-wide siRNA Screen
# Details: mouse BRCA2 R2336H ES cells, olaparib, CellTiter-Glo viability; active compounds read high
# Procedure, shortened: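 Mouse BRCA2 R2336H ES cells were reverse-transfected with siRNA (20 nM final), treated at 48 h with 500 nM olaparib, and read by CellTiter-Glo after 72 h. Scores: MAD-based z per siRNA, median per gene, seed off-target correction.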
row,Sequence,z-score
1,CAACCGUUGUGGCCAUGACTT against Olfr59,inactive: 0.752
2,GCUUGGUCGUAUAUUGUUGTT against Gm610,inactive: 0.493
3,GCAUAUGAUUGUCAUGAGUTT against Olfr319,inactive: -0.121
4,GGUGUUGCAUUCUUUCCUCTT against Dctn5,inactive: -1.1
5,GGAAAAGAAGUUCAAUGGUTT against Riok3,inactive: -0.227
6,GCCAUUACUGAUCAAUCAGTT against BC003267,inactive: 0.369
7,GAGAGGGCAUAAUGGUUUUTT against Hist1h3c,inactive: 1.01
8,GCCAUUUGAAGUGUUUAAATT against Kctd12,inactive: -0.633
9,GGGCAGAUUCCAACUCCUUTT against Cd33,inactive: -2.23
10,GGUCCCAGUGUCAUGUCUUTT against Cdipt,inactive: 0.00151
11,GGAUCUAAGUUUGAUGUCGTT against 1300012D20Rik,inactive: 0.262
12,AGGGUCAUUCUGCUAUUCCTT against Taar7d,inactive: -0.83
13,GGCUUCAAGGUGAAACUCUTT against Cryl1,inactive: 0.575
14,CGUUUCUCAGCAAACUUACTT against Il17,inactive: 0.0437
15,GCAAGGACUCUCAUGGUUGTT against 2310008M20Rik,inactive: -0.775
16,GGUUUUGACCAUAAAAGAATT against 2410003C20Rik,inactive: -0.329
17,GCUUAACUACCUUAAAGACTT against Scn3a,inactive: 0.639
18,GGCAUAAAAAGCAUAGUAGTT against Cstf2,inactive: -1.23
19,GGAUCUGAGUGCUCUACUGTT against 2410004N11Rik,inactive: -2.99
20,GAAUGGUGAUAAGAAGCAUTT against Ndufb3,inactive: -1.06
21,GCUAUGCGUUCAGAAGUUGTT against Ap3d1,inactive: -0.952
22,CCUGCUAGGACUAAGUUAGTT against 4930548H24Rik,inactive: -0.0644
23,GGUUUACAUCCAUUGGCAATT against Mesdc1,inactive: 0.155
24,CGCUCUUUCAGCACAAGAATT against Zfp422,inactive: -1.03
25,GGAACACAUUACCUCAAUUTT against 2610209A20Rik,inactive: -0.826
26,GCAAUUUCGGGUACUCAUATT against Tsta3,inactive: 1.11

# 7 neighbouring records out of the list so far, quoted:
row,Sequence,z-score
14,CGUUUCUCAGCAAACUUACTT against Il17,inactive: 0.0437
15,GCAAGGACUCUCAUGGUUGTT against 2310008M20Rik,inactive: -0.775
16,GGUUUUGACCAUAAAAGAATT against 2410003C20Rik,inactive: -0.329
17,GCUUAACUACCUUAAAGACTT against Scn3a,inactive: 0.639
18,GGCAUAAAAAGCAUAGUAGTT against Cstf2,inactive: -1.23
19,GGAUCUGAGUGCUCUACUGTT against 2410004N11Rik,inactive: -2.99
20,GAAUGGUGAUAAGAAGCAUTT against Ndufb3,inactive: -1.06

# The list continues.

row,Sequence,z-score
1,GGUGUUCGUUUCAUCUACATT against Hnrph2,inactive: 0.917
2,GCAUGAUCUCAGGUGUUUGTT against Timm9,inactive: -0.323
3,GGAUUUCAGAAAGUGGCCUTT against Acad8,inactive: 1.9
4,GGUUCAGCUUUUCAUCAGUTT against Cops3,inactive: -2.39
5,GGCUGUUAUACACUAUCUGTT against Tirap,inactive: 0.654
6,GCAUUACUUUAAGCCAUAUTT against Rbl1,inactive: 1.84
7,CCGAGUCAUUCAGAGAACGTT against Plekha5,inactive: -0.413
8,GCCGUUGGAUCCCAUAUCATT against 4930455F23Rik,inactive: -0.00279
9,GAACGUGAGGCACAAAUGGTT against Rhog,inactive: 0.628
10,GUGAGACCUACCAGAUGAATT against V1rc25,inactive: 0.878
11,CGGAAAUCGUUGCUAAUCUTT against Fcgrt,inactive: 0.381
12,GCAUGUUAAGCCUUGUAUATT against Tnpo1,inactive: -0.439
13,GGCACACAAGAUUCUAGUGTT against Git2,inactive: 1.36
14,GGAUAGCAAAUUCAUCACATT against Ptprg,inactive: 1.83
15,CCUGAUUUAUGCAGAAUUATT against Ube2d3,inactive: 1.81
16,GGCUGUCGAGGAUCUAAACTT against Cyp4a14,inactive: 0.738
17,GGAAAGGUGAACACAAAUGTT against Pet112l,inactive: 1.94
18,GGACCACAACACAAAUCUGTT against Tnfsf6,inactive: 0.0621
19,GGAAGAUAUGAAGGGCUCATT against Mb,inactive: -2.67
20,GCUAGACUCCUACAGCAAUTT against Prss8,inactive: 0.0263
21,CGACAGCACUAUGCUGGGUTT against Psmb4,inactive: -0.253
22,GGCCAAUUAAUUCUUACAGTT against Srl,inactive: 0.426
23,GGAAUUCACUUCGAGGCAUTT against Npas2,inactive: 0.0687
24,GGAUCCUCUUUUGUGGGACTT against Chst4,inactive: -0.149
25,GGAAAUGACUCAUUUACAGTT against Smc1l1,inactive: -0.642
26,GGAAAGAGAUUCUCUUCUATT against D13Wsu123e,inactive: 0.35

row,Sequence,z-score
1,GCUUCUACCUACGCAAUAATT against Nox4,inactive: -2.05
2,GCCAGUUAUCACUUAACCCTT against 2010110K16Rik,inactive: 0.362
3,GGAUCAUUCCUUUGGUUAGTT against Fabp5,inactive: -0.797
4,GGACAAGUGCCUCUCACCATT against Glis2,inactive: -2.65
5,GCAGUGGUAAUUCGACAACTT against Rpl23,inactive: -2.79
6,GGAACUGACUCUAAACAAATT against Slc22a6,inactive: -0.0782
7,CCCUAAGAGAGCCUAAAACTT against Serpina3c,inactive: -0.576
8,GCAGUUGACCACAGAAAAUTT against BC061237,inactive: 0.329
9,GGAGACAACCCAGAUGAACTT against 1700009P17Rik,inactive: 0.84
10,CGAGAGUCUAACCAAGUACTT against Arhgdib,inactive: 1.13
11,GGAAUCAACUGAUACUUAATT against D330038I09Rik,inactive: -0.091
12,GGGAUUCACUUCACUUAAGTT against Olfr294,inactive: 0.209
13,GGAUUUCAAAGGUGAUGAUTT against Xlr5,inactive: 1.31
14,GGCGUGUUUUUGGAGUGCCTT against AI315068,inactive: -0.172
15,GGCAGACGAAUGGUGCAAATT against Dok5,inactive: 0.532
16,CCAAAUAAUUACUAGGCCUTT against Prdx2,inactive: 1.44
17,CCAUGUGGCUGAGAGAUUGTT against Vgll2,inactive: 0.362
18,GGUCUUACUCUUCAUAAUATT against Olfr1301,inactive: 0.137
19,GGAAGAUUCUUACCUCUGATT against Rngtt,inactive: -2.38
20,CCCUUAACUCACUGCUCAATT against Edg5,inactive: -0.715
21,CGCGGCAUAAACAUGUAAATT against 2010003O18Rik,inactive: 0.416
22,GGCACUUCCUCGCUAAUAUTT against Lrp12,inactive: -2.76
23,GGAUCAUUCGGACAAAAGUTT against Pax5,inactive: -0.817
24,GAUAUAAAGCCUUCAACACTT against Olfr912,inactive: 0.442
25,GGUCACACAUUUUUUGUGATT against F8,inactive: -0.351
26,GGUUCUUUCGACUUCCUGCTT against 9430093N24Rik,inactive: 0.758

# Look-ups from the results shown:
# GGAUUUCAAAGGUGAUGAUTT against Xlr5 – z-score: inactive: 1.31
# CCAAAUAAUUACUAGGCCUTT against Prdx2 – z-score: inactive: 1.44

# Additional entries follow:

row,Sequence,z-score
1,GGAAGAUCAGCCAUACUAGTT against A630024B12Rik,inactive: -1.53
2,GGAUUUAAUACCCAGCAGCTT against Nup54,inactive: -0.456
3,CCUUGUAACUCAUUACAUCTT against 2410003P15Rik,inactive: 0.083
4,GGUGCUGAUCUACAGGAUGTT against Lrfn2,inactive: 0.28
5,CCCUUUCCAGCCAGAUCAATT against 1700016K19Rik,inactive: 0.867
6,CCCUAGUGCAGUGAUAACUTT against 1700016D06Rik,inactive: -0.645
7,GGAGUCCCAGGACAUGAAATT against Pou5f1,inactive: -0.904
8,GCUAUGAUCGAUCAAAUUCTT against MGC78289,inactive: 1.32
9,CCUCAUGGCUUUGGCCAUUTT against Olfr1133,inactive: 0.698
10,GGAUUUAGGUUUUGGUUUUTT against Ghitm,inactive: 1.19
11,GGCUUUCAAGAUUCAGUGATT against Gsta1,inactive: -0.93
12,GGAAAUCCUUGACUACAUUTT against Cyp2b19,inactive: -1.8
13,GGAUUGUCUUCCUACUGGGTT against Zdhhc4,inactive: 0.52
14,GGUGAGCGGCCAGAAGUUUTT against Elk1,inactive: -1.63
15,CGGGAGAUGCGUUUGUUUUTT against 6030458C11Rik,inactive: 0.61
16,CCUUCGAACUCGAAAAAUUTT against Olfr722,inactive: 0.346
17,GGACUAGCAAGGCAAGUGATT against Dnase2b,inactive: -1.2
18,GCCGAGAAACAUCCCAAACTT against Zfp313,inactive: 1.08
19,GGAGGUGGUGUUUAUACCATT against Scrn2,inactive: 0.616
20,GGAUUCAUGUUCCAUAUGUTT against C330018L13Rik,inactive: 1.27
21,GGAUAAGUGGUCUGCACUATT against Ube2c,inactive: -0.777
22,GGUCAUUAUUGGAUGCAUCTT against Mga,inactive: -2.47
23,GGCUUCUGGACCUCAAACATT against Zfp92,inactive: 1.33
24,GGCUCAGAGAACUUCUACATT against Itgb4bp,inactive: -1.97
25,GGAAGUUCCGUCGAUUUGATT against Cyp8b1,inactive: -1.83
26,GCACAAUGUCCCAUCGUGGTT against Rps5,inactive: -2.33
